Binding data for 4 molecules are collected here from paper PMC11904178.

Changes are numbered by the printed parent chain. In names and notes the source's numbering stands. These are yes or no findings as the source states them, for the method shown. In cells and extracts the contact can be indirect. Some entries that bind do so weakly or less than the wild type. Where a sequence is shown, tags or fusion partners need not be part of it.

The chains are these.
B1: Flag-UBE3D-N (1-187 a.a.) (domain or fragment, UniProt Q7Z6J8 1-187)
chain: MAASAAETRVFLEVRGQLQSALLILGEPKEGGMPMNISIMPSSLQMKTPEGCTEIQLPAEVRLVPSSCRGLQFVVGDGLHLRLQTQAKLGTKLISMFNQSSQTQECCTFYCQSCGEVIIKDRKLLRVLPLPSENWGALVGEWCCHPDPFANKSLHPQENDCFIGDSFFLVNLRTSLWQQRPELSPVE
B2: Flag-UBE3D (Ubiquitin protein ligase E3D), wild type (protein, UniProt Q7Z6J8 1-389)
chain: MAASAAETRVFLEVRGQLQSALLILGEPKEGGMPMNISIMPSSLQMKTPEGCTEIQLPAEVRLVPSSCRGLQFVVGDGLHLRLQTQAKLGTKLISMFNQSSQTQECCTFYCQSCGEVIIKDRKLLRVLPLPSENWGALVGEWCCHPDPFANKSLHPQENDCFIGDSFFLVNLRTSLWQQRPELSPVEMCCVSSDNHCKLEPKANTKVICKRCKVMLGETVSSETTKFYMTEIIIQSSERSFPIIPRSWFVQSVIAQCLVQLSSARSTFRFTIQGQDDKVYILLWLLNSDSLVIESLRNSKYIKKFPLLENTFKADSSSAWSAVKVLYQPCIKSRNEKLVSLWESDISVHPLTLPSATCLELLLILSKSNANLPSSLRRVNSFQVAFLKM
B3: Flag-UBE3D-dm (T357A/C358S), dominant negative mutant of UBE3D (protein, UniProt Q7Z6J8 1-389)
chain: B2 chain with T357A, C358S
B4: Flag-UBE3D-C (188-389 a.a.) (domain or fragment, UniProt Q7Z6J8 188-389)
chain: MCCVSSDNHCKLEPKANTKVICKRCKVMLGETVSSETTKFYMTEIIIQSSERSFPIIPRSWFVQSVIAQCLVQLSSARSTFRFTIQGQDDKVYILLWLLNSDSLVIESLRNSKYIKKFPLLENTFKADSSSAWSAVKVLYQPCIKSRNEKLVSLWESDISVHPLTLPSATCLELLLILSKSNANLPSSLRRVNSFQVAFLKM

The target of this assay is T1, CPSF3-Myc (cleavage and polyadenylation specific factor 3) (human) (UniProt Q9UKF6).
T1 sequence: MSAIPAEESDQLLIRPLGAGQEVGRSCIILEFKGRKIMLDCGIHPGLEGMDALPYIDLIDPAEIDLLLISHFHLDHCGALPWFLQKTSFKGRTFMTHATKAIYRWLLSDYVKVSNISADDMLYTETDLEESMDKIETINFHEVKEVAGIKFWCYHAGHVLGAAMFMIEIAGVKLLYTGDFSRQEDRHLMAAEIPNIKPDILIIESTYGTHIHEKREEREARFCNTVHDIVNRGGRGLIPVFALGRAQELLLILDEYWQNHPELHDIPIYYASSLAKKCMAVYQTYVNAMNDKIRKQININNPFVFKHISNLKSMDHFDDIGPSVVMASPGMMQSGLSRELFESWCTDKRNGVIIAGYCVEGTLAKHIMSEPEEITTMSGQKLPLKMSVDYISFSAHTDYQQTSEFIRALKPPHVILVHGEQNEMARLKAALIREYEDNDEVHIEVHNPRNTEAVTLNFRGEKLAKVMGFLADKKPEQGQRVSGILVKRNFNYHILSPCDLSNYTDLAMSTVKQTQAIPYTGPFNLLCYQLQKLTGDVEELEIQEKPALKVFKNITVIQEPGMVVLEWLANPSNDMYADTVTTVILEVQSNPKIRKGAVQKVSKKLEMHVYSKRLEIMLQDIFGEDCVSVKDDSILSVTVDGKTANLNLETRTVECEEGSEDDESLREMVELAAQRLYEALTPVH
Put plainly: co-IP; HEK 293T co-transfected with CPSF3-Myc and Flag-UBE3D or one of its mutants; 20 uM MG132 for 6 h before harvest; lysis in co-IP RIPA (50 mM Tris-HCl pH 7.5, 1% NP40, 0.03% SDS, 1 mM EDTA, 150 mM NaCl); anti-Myc or anti-Flag antibody overnight at 4 °C, protein A+G agarose, immunoblot. A general note: A western blot detects proteins with antibodies after separation by electrophoresis.
Take B1: the binding entry is recorded as “binds”.
With B2 the entry was “binds”; with B3, “binds”.
The entry for B4 is “binds”.
